The numbers were not newly measured in patent publication US20210315829A1, “Invention Relating to Nanoparticles Containing Taxanes for Administration by Inhalation” (Justus-Liebig-Universität Gießen, priority 2017, published 2021), which cites them from elsewhere.

`CC(=O)O[C@H]1C(=O)[C@@]2(C)[C@H]([C@H](OC(=O)c3ccccc3)[C@]3(O)C[C@H](OC(=O)[C@H](O)[C@@H](NC(=O)c4ccccc4)c4ccccc4)C(C)=C1C3(C)C)[C@]1(OC(C)=O)CO[C@@H]1C[C@@H]2O` [paclitaxel]: the solubility in water result is given as “only sparingly soluble”.
